Results from publication PMC6403364.
These are yes or no findings as the source states them, for the method shown. In cells and extracts the contact can be indirect. Some results given as binding are weak or reduced against the parent protein; the word gives no strength. Tags and fused reporters may be left off the sequences shown.

Target: T1, mouse Lmo2 (in vitro translated) (mouse) (UniProt P25801)
T1 sequence: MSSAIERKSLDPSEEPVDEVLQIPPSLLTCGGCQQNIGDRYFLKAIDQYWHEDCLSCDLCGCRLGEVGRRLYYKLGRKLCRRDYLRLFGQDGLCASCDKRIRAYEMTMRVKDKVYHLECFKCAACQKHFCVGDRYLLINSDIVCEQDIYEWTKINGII
Test: co-IP; in vitro: proteins translated in rabbit reticulocyte lysate, used directly; incubated in lysis buffer 1 h at 4 °C, then immunoprecipitated (Etv6, Klf4 or Lmo2 antibodies) on Dynabeads protein A; western blot

binding: binds
B1: Xenopus Ldb1-Myc (in vitro translated) (protein, UniProt P70060 1-375)
chain: MLDRDVGPTPMYPPTYLEPGIGRHTPYGNQTDYRIFELNKRLQNWTEECDNLWWDAFTTEFFEDDAMLTITFCLEDGPKRYTIGRTLIPRYFRSIFEGGATELYYVLKHPKESFHNNFVSLDCDQCTMVTQHGKPMFTQVCVEGRLYLEFMFDDMMRIKTWHFSIRQHRELIPRSILAMHAQDPQMLDQLSKNITRCGLSNSTLNYLRLCVILEPMQELMSRHKTYSLSPRDCLKTCLFQKWQRMVAPPAEPARQAPSKRRKRKMSGGSTMSSGGGNTNNSNSKKKSPASTFALSSQVPDVMVVGEPTLMGGEFGDEDERLITRLENTQFDAANGIDDEDSFNNSPALGANSPWNSKPPSSQESKSENPTSQASQ
